In patent publication US20180289780A1, “OSTEOPONTIN AND THROMBIN-CLEAVED FRAGMENT THEREOF AND THEIR USE IN ATHEROSCLEROSIS PREVENTION, INFLAMMATION REDUCTION AND IMPROVING PLAQUE STABILITY” (CardioVax, LLC, priority 2017, published 2018) one finds Plasma cholesterol levels, Cholesterol early atherosclerosis and Cholesterol advanced atherosclerosis data, which are given here for 2 sequences.

The series deals with ApoE-/- mice. Description: Plasma cholesterol (Infinity Cholesterol, colorimetric) in immunized ApoE-/- mice on HFD. In kind it is in vivo. The conditions noted are these: for Plasma cholesterol levels: additional early atherosclerosis study with short tcOPN-PADRE peptide.

Where the note is “HFD 8 weeks”, AKFVAAWTLKAAA (PADRE) displayed a Plasma cholesterol levels of 813 ± 109 mg/dL. Where the note is “plasma, HFD 8 weeks, mean ± SD”, the Cholesterol early atherosclerosis is on record as 772 ± 154 mg/dL. Also, the Cholesterol advanced atherosclerosis (plasma, HFD 15 weeks, mean ± SD, * significant difference) is recorded as 647 ± 143 mg/dL.
“AKFVAAWTLKAAAGRGDSLAYGLR (PADRE-tcOPN short) [short tcOPN-PADRE peptide]” registered a Plasma cholesterol levels (HFD 8 weeks) of 772 ± 137 mg/dL.
